The term Kd denotes the free concentration of one partner at which half of the binding sites on the other are occupied at equilibrium, for simple one-to-one binding.

Like-named read-outs stand apart in the source and are kept apart here. Weaker means in comparison with the reference protein, sequence or condition of that experiment. For at least one entry, the source does not settle the construct or the ends of the probe. At least one verdict rests on a figure or table, not on a statement of the authors.

In this data set the test system is Human alpha-thrombin (Factor IIa) (Homo sapiens). Put plainly: bead fluorescence binding.

As to “ACGTGAGAGAGTCCGTGGTAGGGCAGGTTGGGGTGACTATACGACGA / CTCTCACGTTCGTCGTAT [SAM18-18]”, the binding result was “binds more weakly”.

“ACGTGAGAAGTCCGTGGTAGGGCAGGTTGGGGTGACTTACGACGA / TCTCACGTTTTCGTCGTA [SAM16 with gap = 2]”: the binding result was “binds”.

Take “AATTCCGAAGTCCGTGGTAGGGCAGGTTGGGGTGACTATCGACGG / TCGGAATTCCGTCGAT [SAM16-16 with EcoRI site]”: the Kd (before EcoRI digestion) was found to be 1690 nM. Consider “ACGTGAGAAGTCCGTGGTAGGGCAGGTTGGGGTGACTTACGACGA / TCTCACGTTTCGTCGTA [SAM16 with gap = 1]”, for which the binding result was “binds”.

For “AATTCCGAAGTCCGTGGTAGGGCAGGTTGGGGTGACTATCGACGG [EcoRI-site aptamer strand alone (control)]”, the binding result (no inhibitor strand) is “binds”.

The values are drawn from paper doi:10.1101/2022.07.28.501929.
